We go through 13 molecules from US20250074980A1 (BRIGHAM AND WOMEN S HOSPITAL, published 2025).

Assay [1] has as its target T1, His-tagged CEACAM1 (human, UniProt P13688 35-428).
T1 construct: 45 kDa SPR analyte; also called CEACAM1-HIS; CEACAM1 analyte
T1 sequence: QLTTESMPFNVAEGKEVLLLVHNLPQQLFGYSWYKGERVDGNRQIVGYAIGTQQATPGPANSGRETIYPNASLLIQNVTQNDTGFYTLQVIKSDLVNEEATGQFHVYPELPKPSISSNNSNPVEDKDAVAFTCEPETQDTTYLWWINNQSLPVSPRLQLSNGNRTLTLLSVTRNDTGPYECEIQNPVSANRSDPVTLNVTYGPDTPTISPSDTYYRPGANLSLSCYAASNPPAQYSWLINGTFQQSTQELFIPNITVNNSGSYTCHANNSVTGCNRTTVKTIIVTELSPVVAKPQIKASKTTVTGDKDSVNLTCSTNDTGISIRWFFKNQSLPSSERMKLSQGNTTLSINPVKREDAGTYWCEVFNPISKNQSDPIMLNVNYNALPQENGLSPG
Kind of assay: SPR and ELISA (FIGS. 12A-12C). On the technique in general: ELISA stands for enzyme-linked immunosorbent assay.

The target in the next assay is CEACAM-1 (Homo sapiens) (UniProt P13688). Kind of assay: three-point binding ELISA on coated CEACAM-1, anti-human kappa chain antibody and TMB.
The target of assay [2] is FLAG-tagged CEACAM1 (human) (UniProt P13688). Briefly: Western blot of FLAG-tagged CEACAM1. Background: In western blotting, separated proteins are transferred to a membrane and probed.
The target is the same in assay [3]. Briefly: immunoblot of wild-type CEACAM1-FLAG from transfected cells, detected with the antibody.
Assay [4] deals with T1, His-tagged CEACAM1. Kind of assay: SPR single-cycle kinetics, antibody captured on Protein A, CEACAM-1 injected at three rising concentrations.
Assay [5] concerns the target T2, CEACAM1 on transfected HeLa cells (human, UniProt P13688 35-526).
T2 construct: also called HeLa-CEACAM1; HeLa C1
T2 sequence: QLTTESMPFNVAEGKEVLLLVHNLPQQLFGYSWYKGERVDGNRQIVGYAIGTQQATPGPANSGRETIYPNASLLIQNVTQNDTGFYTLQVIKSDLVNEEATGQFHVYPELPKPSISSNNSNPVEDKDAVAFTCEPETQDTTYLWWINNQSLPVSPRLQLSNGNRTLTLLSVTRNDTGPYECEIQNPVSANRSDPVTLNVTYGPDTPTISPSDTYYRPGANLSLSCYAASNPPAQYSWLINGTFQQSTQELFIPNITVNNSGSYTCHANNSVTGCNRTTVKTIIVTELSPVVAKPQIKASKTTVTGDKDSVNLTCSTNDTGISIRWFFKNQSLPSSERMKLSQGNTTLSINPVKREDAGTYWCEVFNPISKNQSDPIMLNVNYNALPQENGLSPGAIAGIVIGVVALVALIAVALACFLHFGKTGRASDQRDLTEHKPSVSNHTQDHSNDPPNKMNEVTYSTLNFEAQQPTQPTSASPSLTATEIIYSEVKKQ
Kind of assay: flow cytometry, HeLa-CEACAM1 transfectants, % positive cells. (In general: A flow cytometer gives signals particle by particle.)

For assay [6], the target named is T2, CEACAM1 on transfected HeLa cells. Kind of assay: flow cytometry, HeLa-CEACAM1 transfectants, % staining, stacked bars.
The target of assay [7] is tagless CEACAM1 expressed in E. coli (crystallised) (human) (UniProt P13688). Kind of assay: crystal structure of the complex, 3.3 Å.
Assay [8] deals with T2, CEACAM1 on transfected HeLa cells. Kind of assay: flow cytometry, transfected HeLa.
For assay [9] the target is unchanged. Kind of assay: flow cytometry titration, HeLa-CEACAM1 transfectants, anti-human IgG4 FITC.
For assay [10] the target is unchanged. Briefly: flow cytometry contour plots, HeLa-CEACAM1 transfectants, anti-human IgG4 FITC.
Assay [11] concerns the target T3, GST-CEACAM1 (human, UniProt P13688 35-141, limits assumed).
T3 construct: also called human CEACAM1-GST protein
T3 sequence: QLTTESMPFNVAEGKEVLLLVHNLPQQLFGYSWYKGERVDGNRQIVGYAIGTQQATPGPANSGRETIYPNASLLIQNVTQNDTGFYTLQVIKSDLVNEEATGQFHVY
Kind of assay: phage ELISA on GST-CEACAM1.

Assay [12] has as its target T3, GST-CEACAM1. Briefly: phage ELISA on plate-bound GST-CEACAM1, anti-M13-HRP and TMB.

Changes are numbered by the printed parent chain. Names may count otherwise. These are yes or no findings as the source states them, for the method shown. Some results given as binding are weak or reduced against the parent protein; the word gives no strength.

B1: chimeric antibody VH0/Vκ0 (antibody, IgG4, V domains shown)
VH: EVQLVESGGDLVKPGGSLKLACAASGFIFSSHGMSWVRQTPDKRLEWVATISSGGTYTYYPDSVKGRFTISRDNDKNTLYLQMNSLKSEDTAMYYCARHDFDYDAAWFAYWGQGTLVTVSS
VL: QIVLTQSPALMSASPGVKVTMTCSANSSVSYMYWYRQKPRSSPKPWIYLTSNLASGVPARFSGSGSGTSYSLTISSMEAEDAATYYCQQWSSNPPTFGSGTKLEIK
notes: IgG4 (S241P), kappa; also called VH0/Vκ0 (control); Chimeric VH0/Vκ0
For the molecule B1, the binding result (with His-tagged CEACAM1 [1]; in the assay with CEACAM-1 (Homo sapiens); in assay [2]; in assay [3]; with His-tagged CEACAM1 [4]; in assay [5]) was “binds” each time.

B2: CP08H03/CP08E05 (antibody, IgG4, V domains shown)
VH: EVQLLESGGGLVQPGGSLRLSCAASGFIFSSHGMSWVRQAPGKGLEWVATISSGGTYTYYPDSVKGRFTISRDNSKNTLYLQMNSLKAEDTAMYYCARHDFDYFPYWFAHWGQGTLVTVSS
VL: EIVLTQSPATLSLSPGERATLSCRANSAVSYMYWYQQKPGQAPRPWIYLTSNRATGVPARFSGSGSGTDYTLTISSLEPEDFAVYYCQQWTTNPPTFGQGTKLEIK
notes: IgG4 (S241P), kappa
Regarding B2, the binding entry in [6] is listed as “binds”.

B3: CP08H03/Vκ8 S29A Fab (Fab, V domains shown)
VH: B2 VH
VL: B2 VL with T91S, T92S
On to B3, for which the binding result in assay [7] is “binds”.

B4: VH3/Vκ1 (antibody, IgG4, V domains shown)
VH: B2 VH with P61A, K87R, F104D, P105A, Y106A, H110Y
VL: QIVLTQSPALLSLSPGERATMSCSANSSVSYMYWYRQKPGQAPKPWIYLTSNLASGVPARFSGSGSGTDYTLTISSLEAEDFATYYCQQWSSNPPTFGQGTKLEIK
notes: IgG4 (S241P), kappa
For B4, the binding entry in assay [2], in assay [3] and in assay [5] was “binds” throughout.

B5: CP09C02/CP08E05 (antibody, IgG4, V domains shown)
VH: B2 VH with G26E, I28T, S31D, G33A, D100G, F104D, P105A, Y106A, H110Y
VL: B2 VL
notes: IgG4 (S241P), kappa
B5: the binding result in assay [6] was “binds”.

B6: VH4/Vκ1 (antibody, IgG4, V domains shown)
VH: B2 VH with A49S, P61A, K87R, M93V, F104D, P105A, Y106A, H110Y
VL: B4 VL
notes: IgG4 (S241P), kappa
Take B6: the binding entry in assay [2], in assay [3] and in assay [5] was “binds” in each case.

B7: CP08H03/Vκ8 S29A (antibody, IgG4, V domains shown)
VH: B2 VH
VL: B2 VL with T91S, T92S
notes: IgG4 (S241P), kappa; also called CP08_H03/Parent VL; CP08_H03/Parental
For the molecule B7, the binding entry (with His-tagged CEACAM1 [1]; with CEACAM-1 (Homo sapiens); in assay [8]; in assay [9]; in [6]; with His-tagged CEACAM1 [4]) was “binds” throughout. Further, in assay [10], the binding entry is on record as “binds”.

B8: VH2/Vκ4 (antibody, IgG4, V domains shown)
VH: B2 VH with K87R, F104D, P105A, Y106A, H110Y
VL: B2 VL with A28S, V57I, V84T, T91S, T92S
notes: IgG4 (S241P), kappa
In the case of B8, the binding entry in [2], in assay [3] and in assay [5] was “binds” each time.

B9: CP09B03/CP08E05 (antibody, IgG4, V domains shown)
VH: B2 VH with I28T, S30N, S31A, G33A, M34I, F104D, P105A, Y106A, H110Y
VL: B2 VL
notes: IgG4 (S241P), kappa
Consider B9, for which the binding entry in [6] is “binds”.

B10: CP08H03/CP08F05 (antibody, V domains shown)
VH: B2 VH
VL: B2 VL with T92S
notes: IgG4 (S241P), kappa
Turning to B10, the binding result (in the assay with His-tagged CEACAM1 [1]; with CEACAM-1 (Homo sapiens); in [6]; with His-tagged CEACAM1 [4]) was “binds” throughout.

B11: VH1/Vκ8 (antibody, IgG4, V domains shown)
VH: B2 VH with F104D, P105A, Y106A, H110Y
VL: B2 VL with A28S, T91S, T92S
notes: IgG4 (S241P), kappa
On to B11, for which the binding result in [2], in [3] and in assay [5] was “binds” in each case.

B12: CP09C02/CP08F05 (antibody, IgG4, V domains shown)
VH: B2 VH with G26E, I28T, S31D, G33A, D100G, F104D, P105A, Y106A, H110Y
VL: B2 VL with T92S
notes: IgG4 (S241P), kappa
On to B12, for which, in assay [6], the binding result is listed as “binds”.

B13: parent VH1/Vκ8 S29A scFv displayed on phage (scFv, not shown: large carriers)
scFv: EVQLLESGGGLVQPGGSLRLSCAASGFIFSSHGMSWVRQAPGKGLEWVATISSGGTYTYYPDSVKGRFTISRDNSKNTLYLQMNSLKAEDTAMYYCARHDFDYDAAWFAYWGQGTLVTVSSGGGGSGGGGSGGGGSEIVLTQSPATLSLSPGERATLSCRANSAVSYMYWYQQKPGQAPRPWIYLTSNRATGVPARFSGSGSGTDYTLTISSLEPEDFAVYYCQQWSSNPPTFGQGTKLEIK
B13: the binding result in the assay with GST-CEACAM1 [11] and with GST-CEACAM1 [12] was “binds” throughout.
